Source: the RepoRT retention time repository (doi:10.1021/acs.analchem.2c02893)

Assay: RP, Thermo Scientific Acclaim RSLC 120 C18, 100 × 2.1 mm, 2.2 µm, 30 °C, 0.2 mL/min, estimated dead time 1.1 min; A: 90% water + 10% methanol + 0.01% formic acid + 5 mM ammonium formate, pH 3.61; B: methanol + 0.01% formic acid + 5 mM ammonium formate, pH 3.61; gradient (min/%B) 0/1 1/1 2/39 13/99.9 15/99.9 15.1/1 20.1/1
Details: stereoisomer not certain

SMILES: O=C(c1ccccc1)c1ccccc1 [Benzophenone-d10]
- LC retention time: 9.51 min
